Laboratory results taken from the supplement of paper PMC10849652.
This is one part of the list.

Protein sequences, listed by entry. Tags and fused reporters are not part of them. Lines headed by an entry give the natural chain unless they say otherwise; changes in a name come on top.
UniProt Q14444, whole entry, looked up: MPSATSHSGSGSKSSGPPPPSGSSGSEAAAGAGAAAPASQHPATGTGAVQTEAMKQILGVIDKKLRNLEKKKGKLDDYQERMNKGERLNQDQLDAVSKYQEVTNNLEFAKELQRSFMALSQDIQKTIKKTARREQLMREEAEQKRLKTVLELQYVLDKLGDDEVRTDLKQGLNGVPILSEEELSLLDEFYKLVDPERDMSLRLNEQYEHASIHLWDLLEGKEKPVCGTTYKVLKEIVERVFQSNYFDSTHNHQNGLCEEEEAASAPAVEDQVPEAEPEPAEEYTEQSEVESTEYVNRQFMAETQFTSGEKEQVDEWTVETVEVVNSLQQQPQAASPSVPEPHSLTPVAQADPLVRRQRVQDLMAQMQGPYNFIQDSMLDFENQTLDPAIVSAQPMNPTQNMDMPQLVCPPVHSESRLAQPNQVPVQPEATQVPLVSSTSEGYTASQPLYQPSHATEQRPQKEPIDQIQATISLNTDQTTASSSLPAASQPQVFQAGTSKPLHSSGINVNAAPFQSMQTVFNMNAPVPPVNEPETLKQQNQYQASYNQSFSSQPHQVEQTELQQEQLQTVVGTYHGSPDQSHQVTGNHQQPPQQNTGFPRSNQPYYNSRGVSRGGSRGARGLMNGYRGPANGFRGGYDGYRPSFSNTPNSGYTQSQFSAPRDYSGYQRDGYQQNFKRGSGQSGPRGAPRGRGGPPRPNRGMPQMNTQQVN
UniProt Q07021: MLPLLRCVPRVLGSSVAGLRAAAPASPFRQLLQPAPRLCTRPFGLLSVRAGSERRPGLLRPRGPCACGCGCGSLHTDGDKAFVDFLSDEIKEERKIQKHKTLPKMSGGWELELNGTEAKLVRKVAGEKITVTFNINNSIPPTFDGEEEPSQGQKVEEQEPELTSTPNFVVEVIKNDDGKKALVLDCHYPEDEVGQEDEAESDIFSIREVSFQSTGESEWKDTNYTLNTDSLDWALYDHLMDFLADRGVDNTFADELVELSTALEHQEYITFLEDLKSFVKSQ
UniProt Q8NDD1: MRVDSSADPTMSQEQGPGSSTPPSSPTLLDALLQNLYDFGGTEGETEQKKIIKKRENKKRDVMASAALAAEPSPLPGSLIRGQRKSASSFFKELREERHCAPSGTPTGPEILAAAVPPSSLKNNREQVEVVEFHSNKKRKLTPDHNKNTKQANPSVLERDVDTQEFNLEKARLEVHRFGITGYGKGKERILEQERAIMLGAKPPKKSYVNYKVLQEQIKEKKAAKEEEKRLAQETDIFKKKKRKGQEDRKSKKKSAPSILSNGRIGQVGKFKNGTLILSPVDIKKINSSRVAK
UniProt Q8N6N3: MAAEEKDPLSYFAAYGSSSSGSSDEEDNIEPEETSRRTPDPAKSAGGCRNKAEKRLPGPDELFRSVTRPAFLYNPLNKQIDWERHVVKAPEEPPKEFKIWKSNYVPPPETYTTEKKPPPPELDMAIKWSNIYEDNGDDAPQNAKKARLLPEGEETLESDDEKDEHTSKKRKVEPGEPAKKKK
UniProt Q9NZ63: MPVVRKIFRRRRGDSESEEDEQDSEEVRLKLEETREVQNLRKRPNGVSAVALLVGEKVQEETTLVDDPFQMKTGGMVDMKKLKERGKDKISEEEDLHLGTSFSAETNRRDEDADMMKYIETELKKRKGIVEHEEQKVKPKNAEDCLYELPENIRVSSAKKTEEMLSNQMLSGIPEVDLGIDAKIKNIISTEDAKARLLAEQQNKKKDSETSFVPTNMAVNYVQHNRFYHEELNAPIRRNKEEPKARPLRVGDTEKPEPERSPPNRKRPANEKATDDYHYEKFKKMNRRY
UniProt Q9BSJ5: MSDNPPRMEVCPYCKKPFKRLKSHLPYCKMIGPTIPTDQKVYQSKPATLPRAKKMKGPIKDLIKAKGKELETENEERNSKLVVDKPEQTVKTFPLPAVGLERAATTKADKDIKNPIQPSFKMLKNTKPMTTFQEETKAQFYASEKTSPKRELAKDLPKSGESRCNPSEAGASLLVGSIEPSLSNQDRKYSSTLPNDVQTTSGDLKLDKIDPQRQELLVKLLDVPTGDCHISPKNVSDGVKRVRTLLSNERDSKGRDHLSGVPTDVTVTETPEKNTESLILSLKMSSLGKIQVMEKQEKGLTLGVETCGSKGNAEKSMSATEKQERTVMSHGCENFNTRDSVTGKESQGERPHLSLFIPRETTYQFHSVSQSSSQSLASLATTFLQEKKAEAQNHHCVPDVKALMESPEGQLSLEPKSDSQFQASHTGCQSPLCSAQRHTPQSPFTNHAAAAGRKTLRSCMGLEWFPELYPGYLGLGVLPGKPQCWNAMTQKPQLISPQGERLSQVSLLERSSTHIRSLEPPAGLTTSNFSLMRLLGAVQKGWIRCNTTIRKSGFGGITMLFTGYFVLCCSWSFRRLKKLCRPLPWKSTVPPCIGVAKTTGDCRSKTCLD
UniProt Q9Y6W3: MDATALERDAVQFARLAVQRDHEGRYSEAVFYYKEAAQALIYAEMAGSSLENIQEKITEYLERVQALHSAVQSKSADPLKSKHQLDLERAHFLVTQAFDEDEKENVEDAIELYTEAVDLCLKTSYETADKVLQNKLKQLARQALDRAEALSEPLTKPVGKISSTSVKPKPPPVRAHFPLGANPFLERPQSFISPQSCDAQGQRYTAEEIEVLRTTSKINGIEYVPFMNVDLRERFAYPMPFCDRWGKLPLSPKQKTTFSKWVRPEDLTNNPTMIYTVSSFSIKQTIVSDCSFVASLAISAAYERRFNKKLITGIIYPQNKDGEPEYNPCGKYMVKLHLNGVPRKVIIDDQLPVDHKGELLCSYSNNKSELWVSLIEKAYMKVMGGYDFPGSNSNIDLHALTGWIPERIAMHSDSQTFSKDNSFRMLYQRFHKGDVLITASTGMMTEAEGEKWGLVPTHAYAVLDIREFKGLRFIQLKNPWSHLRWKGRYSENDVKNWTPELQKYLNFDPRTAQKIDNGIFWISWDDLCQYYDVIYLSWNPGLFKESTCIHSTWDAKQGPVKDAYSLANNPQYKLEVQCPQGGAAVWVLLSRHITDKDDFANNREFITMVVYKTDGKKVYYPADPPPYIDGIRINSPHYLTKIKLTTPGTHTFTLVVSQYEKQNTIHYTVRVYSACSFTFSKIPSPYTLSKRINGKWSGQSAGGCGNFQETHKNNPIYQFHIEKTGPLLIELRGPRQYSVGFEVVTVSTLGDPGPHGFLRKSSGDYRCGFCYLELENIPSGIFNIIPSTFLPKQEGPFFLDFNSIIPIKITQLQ
UniProt O43684, whole entry, looked up: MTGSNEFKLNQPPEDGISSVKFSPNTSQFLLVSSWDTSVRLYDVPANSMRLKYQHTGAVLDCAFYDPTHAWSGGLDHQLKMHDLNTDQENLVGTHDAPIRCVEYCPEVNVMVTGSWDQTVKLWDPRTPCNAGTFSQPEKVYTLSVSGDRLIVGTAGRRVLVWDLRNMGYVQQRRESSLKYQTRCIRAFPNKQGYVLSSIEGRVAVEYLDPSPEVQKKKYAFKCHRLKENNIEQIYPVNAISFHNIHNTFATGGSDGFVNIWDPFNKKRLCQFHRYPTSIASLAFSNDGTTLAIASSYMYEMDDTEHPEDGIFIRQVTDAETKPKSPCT
UniProt Q96K31: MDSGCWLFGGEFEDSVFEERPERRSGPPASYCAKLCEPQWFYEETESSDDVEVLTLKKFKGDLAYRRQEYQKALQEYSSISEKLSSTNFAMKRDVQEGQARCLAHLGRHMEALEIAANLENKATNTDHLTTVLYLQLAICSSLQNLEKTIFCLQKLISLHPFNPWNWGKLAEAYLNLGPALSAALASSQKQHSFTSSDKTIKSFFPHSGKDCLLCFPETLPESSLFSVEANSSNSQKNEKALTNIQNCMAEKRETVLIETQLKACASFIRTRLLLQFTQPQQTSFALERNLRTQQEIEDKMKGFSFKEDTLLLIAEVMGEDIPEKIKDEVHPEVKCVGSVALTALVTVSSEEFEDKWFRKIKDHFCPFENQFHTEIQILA
UniProt Q6ZSJ8: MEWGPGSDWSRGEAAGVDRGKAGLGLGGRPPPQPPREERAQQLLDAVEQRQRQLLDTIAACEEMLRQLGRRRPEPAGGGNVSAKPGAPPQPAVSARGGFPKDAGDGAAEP
UniProt P01024, whole entry, looked up: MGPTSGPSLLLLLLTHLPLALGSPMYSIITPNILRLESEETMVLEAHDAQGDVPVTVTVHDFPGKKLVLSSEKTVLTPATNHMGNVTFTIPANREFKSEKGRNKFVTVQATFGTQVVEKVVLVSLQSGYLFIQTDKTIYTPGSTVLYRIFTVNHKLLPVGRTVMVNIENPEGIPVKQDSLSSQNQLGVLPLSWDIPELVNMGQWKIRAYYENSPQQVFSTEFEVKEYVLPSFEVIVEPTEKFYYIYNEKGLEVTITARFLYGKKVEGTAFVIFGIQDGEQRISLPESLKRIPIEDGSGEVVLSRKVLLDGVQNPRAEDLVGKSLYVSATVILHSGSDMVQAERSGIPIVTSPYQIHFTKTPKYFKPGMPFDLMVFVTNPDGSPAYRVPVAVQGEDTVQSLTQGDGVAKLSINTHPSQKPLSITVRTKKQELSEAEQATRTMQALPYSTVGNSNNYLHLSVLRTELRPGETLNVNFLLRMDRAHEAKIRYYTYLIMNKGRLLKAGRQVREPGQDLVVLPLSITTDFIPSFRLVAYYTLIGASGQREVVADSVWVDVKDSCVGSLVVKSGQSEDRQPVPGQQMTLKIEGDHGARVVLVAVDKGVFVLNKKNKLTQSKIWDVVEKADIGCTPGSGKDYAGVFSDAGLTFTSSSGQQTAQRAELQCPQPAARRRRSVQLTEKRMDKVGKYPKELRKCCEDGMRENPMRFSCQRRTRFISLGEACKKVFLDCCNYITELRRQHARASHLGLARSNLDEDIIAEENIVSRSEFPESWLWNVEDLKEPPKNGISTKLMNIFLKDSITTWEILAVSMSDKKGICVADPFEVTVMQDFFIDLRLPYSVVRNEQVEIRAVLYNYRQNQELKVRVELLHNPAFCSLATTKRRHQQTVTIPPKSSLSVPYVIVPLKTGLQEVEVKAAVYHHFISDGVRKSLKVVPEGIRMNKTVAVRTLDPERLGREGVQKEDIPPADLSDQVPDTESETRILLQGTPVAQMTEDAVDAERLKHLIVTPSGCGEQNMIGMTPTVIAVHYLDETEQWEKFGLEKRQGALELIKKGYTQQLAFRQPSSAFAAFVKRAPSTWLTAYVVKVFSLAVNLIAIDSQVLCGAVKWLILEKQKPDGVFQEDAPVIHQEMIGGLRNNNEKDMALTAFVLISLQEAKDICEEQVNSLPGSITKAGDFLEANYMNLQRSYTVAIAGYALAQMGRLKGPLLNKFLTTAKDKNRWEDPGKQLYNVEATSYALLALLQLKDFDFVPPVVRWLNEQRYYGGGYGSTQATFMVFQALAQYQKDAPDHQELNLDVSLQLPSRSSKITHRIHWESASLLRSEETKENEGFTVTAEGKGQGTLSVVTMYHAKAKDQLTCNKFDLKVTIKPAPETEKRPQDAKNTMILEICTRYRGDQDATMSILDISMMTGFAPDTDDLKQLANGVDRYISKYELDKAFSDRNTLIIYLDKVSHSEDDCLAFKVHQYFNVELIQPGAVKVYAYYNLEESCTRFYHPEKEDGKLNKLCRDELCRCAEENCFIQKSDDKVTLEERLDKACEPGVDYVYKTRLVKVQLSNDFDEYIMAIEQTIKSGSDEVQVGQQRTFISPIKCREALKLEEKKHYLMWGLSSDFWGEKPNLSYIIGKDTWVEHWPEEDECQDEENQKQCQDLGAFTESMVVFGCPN
UniProt O14523: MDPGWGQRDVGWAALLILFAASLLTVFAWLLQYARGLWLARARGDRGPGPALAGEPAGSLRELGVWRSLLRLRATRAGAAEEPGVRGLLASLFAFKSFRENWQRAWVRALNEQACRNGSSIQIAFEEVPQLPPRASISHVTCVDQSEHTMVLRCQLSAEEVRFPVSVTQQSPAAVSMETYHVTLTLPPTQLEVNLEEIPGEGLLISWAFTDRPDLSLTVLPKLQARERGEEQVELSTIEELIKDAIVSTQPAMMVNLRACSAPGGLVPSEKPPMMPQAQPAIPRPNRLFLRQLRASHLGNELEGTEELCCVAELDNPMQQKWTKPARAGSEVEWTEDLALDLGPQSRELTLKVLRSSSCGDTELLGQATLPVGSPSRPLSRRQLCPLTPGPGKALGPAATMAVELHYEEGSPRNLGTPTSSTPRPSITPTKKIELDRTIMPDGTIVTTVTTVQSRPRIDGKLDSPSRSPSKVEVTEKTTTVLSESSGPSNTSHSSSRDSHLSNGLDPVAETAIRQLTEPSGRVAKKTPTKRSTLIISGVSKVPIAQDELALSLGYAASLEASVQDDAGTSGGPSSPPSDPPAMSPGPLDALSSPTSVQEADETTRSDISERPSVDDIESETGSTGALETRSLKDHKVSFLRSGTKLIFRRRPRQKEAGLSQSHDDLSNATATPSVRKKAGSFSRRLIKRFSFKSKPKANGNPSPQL

Legend:
Test in all cases: log2 fold change, soluble protein after heating vs DMSO (PISA); higher = thermal stabilisation; K562 cells, 10 uM, 30 min; active = over 0.2 and 3.5 SD of the protein, either way, in both replicates (recomputed)
saracatinib = compound: CN1CCN(CCOc2cc(OC3CCOCC3)c3c(Nc4c(Cl)ccc5c4OCO5)ncnc3c2)CC1 [saracatinib]
In short: (§1)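 Quantification of soluble protein used TMTpro 16plex LC-MS/MS, with channel sums equalised. Samples were the supernatant after 21,000xg for 90 min of pooled aliquots from K562 cells (2×10^6 cells/mL) treated with 10 μM compound for 30 min, heated for 3 min over 48°C-58°C, and extracted in PBS with 0.5% NP-40 at 4°C. Values, from duplicates, describe thermal stability against control samples on a log2 fold-change scale.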

sotrastaurin = compound: CN1CCN(c2nc(C3=C(c4c[nH]c5ccccc45)C(=O)NC3=O)c3ccccc3n2)CC1 [sotrastaurin]
In short: as §1

alvocidib = compound: CN1CC[C@H](c2c(O)cc(O)c3c(=O)cc(-c4ccccc4Cl)oc23)[C@H](O)C1 [alvocidib]
In short: as §1

Tubastatin A = compound: CN1CCc2c(c3ccccc3n2Cc2ccc(C(=O)NO)cc2)C1 [Tubastatin A]
In short: as §1

[1] = compound: CNC(=O)C1=CC=CC=C1NC2=NC(=NC=C2Cl)NC3=C(C=C(C=C3)N4CCOCC4)OC
In short: as §1

defactinib = compound: CNC(=O)c1ccc(Nc2ncc(C(F)(F)F)c(NCc3nccnc3N(C)S(C)(=O)=O)n2)cc1 [defactinib]
In short: as §1

rucaparib = compound: CNCc1ccc(-c2[nH]c3cc(F)cc4c3c2CCNC4=O)cc1 [rucaparib]
In short: as §1

[2] = compound: CNc1nc(-c2ccc3c(N)n[nH]c3c2)cc(N2C[C@@H](C(=O)NC3CCCCC3)CC[C@H]2C)n1
In short: as §1

encorafenib = compound: COC(=O)N[C@@H](C)CNc1nccc(-c2cn(C(C)C)nc2-c2cc(Cl)cc(NS(C)(=O)=O)c2F)n1 [encorafenib]
In short: as §1

[3] = compound: COC(=O)[C@H](CCSC)NC(=O)C1=C(C=C(C=C1)NC[C@H](CS)N)C2=CC=CC=C2
In short: as §1

[4] = compound: COC1=CC=C(C=C1)CN2C=CC3=C2C=C(C=C3)C(=O)NO
In short: as §1

filanesib = compound: CON(C)C(=O)N1N=C(c2cc(F)ccc2F)S[C@@]1(CCCN)c1ccccc1 [filanesib]
In short: as §1

zotarolimus = compound: CO[C@H]1C[C@@H]2CC[C@@H](C)[C@@](O)(O2)C(=O)C(=O)N2CCCC[C@H]2C(=O)O[C@H]([C@H](C)C[C@@H]2CC[C@H](n3cnnn3)[C@H](OC)C2)CC(=O)[C@H](C)/C=C(\C)[C@@H](O)[C@@H](OC)C(=O)[C@H](C)C[C@H](C)/C=C/C=C/C=C/1C [zotarolimus]
In short: as §1

idasanutlin = compound: COc1cc(C(=O)O)ccc1NC(=O)[C@@H]1N[C@@H](CC(C)(C)C)[C@](C#N)(c2ccc(Cl)cc2F)[C@H]1c1cccc(Cl)c1F [idasanutlin]
In short: as §1

alisertib = compound: COc1cc(Nc2ncc3c(n2)-c2ccc(Cl)cc2C(c2c(F)cccc2OC)=NC3)ccc1C(=O)O [alisertib]
In short: as §1

[5] = compound: COc1cc2nc(-c3cc(F)ccc3O)nc(N[C@@H]3CNC[C@H]3C(C)(C)O)c2cc1OC
In short: as §1

gefitinib = compound: COc1cc2ncnc(Nc3ccc(F)c(Cl)c3)c2cc1OCCCN1CCOCC1 [gefitinib]
In short: as §1

[6] = compound: COc1cccc2cc(-c3nc([C@H]4CC[C@H](C(=O)O)CC4)n4ncnc(N)c34)[nH]c12
In short: as §1

lapatinib = compound: CS(=O)(=O)CCNCc1ccc(-c2ccc3ncnc(Nc4ccc(OCc5cccc(F)c5)c(Cl)c4)c3c2)o1 [lapatinib]
In short: as §1

pictilisib = compound: CS(=O)(=O)N1CCN(Cc2cc3nc(-c4cccc5[nH]ncc45)nc(N4CCOCC4)c3s2)CC1 [pictilisib]
In short: as §1

Measured: log2 fold change

CAPRIN1 (UniProt Q14444)
inactive: saracatinib 0.023 | sotrastaurin 0.047 | alvocidib 0.243 | Tubastatin A 0.035 | [1] 0.058 | defactinib 0.122 | rucaparib 0.12 | [2] -0.022 | encorafenib 0.009 | [3] 0.003 | [4] -0.048 | filanesib 0.196 | zotarolimus -0.042 | idasanutlin 0.118 | alisertib -0.041 | [5] -0.028 | gefitinib -0.012 | [6] -0.045 | lapatinib 0.027 | pictilisib -0.065

C1QBP (UniProt Q07021)
inactive: saracatinib 0.031 | sotrastaurin 0.092 | alvocidib -0.043 | Tubastatin A 0.079 | [1] 0.049 | defactinib -0.101 | rucaparib -0.022 | [2] 0.07 | encorafenib -0.006 | [3] -0.001 | [4] -0.015 | filanesib 0.005 | zotarolimus 0.013 | idasanutlin -0.038 | alisertib -0.055 | [5] 0.043 | gefitinib 0.013 | [6] 0.02 | lapatinib -0.014 | pictilisib 0.028

C1orf131 isoform 5 (UniProt Q8NDD1)
inactive: saracatinib -0.053 | sotrastaurin 0.017 | alvocidib 0.239 | Tubastatin A 0.072 | [1] -0.013 | defactinib 0.174 | rucaparib 0.27 | [2] 0.066 | encorafenib 0.158 | [3] 0.095 | [4] -0.132 | filanesib 0.247 | zotarolimus 0.012 | idasanutlin 0.182 | alisertib -0.045 | [5] -0.039 | gefitinib 0.022 | [6] -0.064 | lapatinib 0.107 | pictilisib -0.07

C1orf52 (UniProt Q8N6N3)
inactive: saracatinib 0.014 | sotrastaurin 0.005 | alvocidib 0.039 | Tubastatin A -0.024 | [1] -0.04 | defactinib -0.009 | rucaparib 0.033 | [2] -0.028 | encorafenib -0.032 | [3] 0.055 | [4] 0.024 | filanesib -0.052 | zotarolimus -0.059 | idasanutlin 0.022 | alisertib -0.014 | [5] -0.053 | gefitinib 0.006 | [6] 0.03 | lapatinib 0.012 | pictilisib -0.033

Retrieved one by one from the entries so far, 2 records:
CAPRIN1 (UniProt Q14444)
inactive: saracatinib 0.023 | sotrastaurin 0.047 | alvocidib 0.243 | Tubastatin A 0.035 | [1] 0.058 | defactinib 0.122 | rucaparib 0.12 | [2] -0.022 | encorafenib 0.009 | [3] 0.003 | [4] -0.048 | filanesib 0.196 | zotarolimus -0.042 | idasanutlin 0.118 | alisertib -0.041 | [5] -0.028 | gefitinib -0.012 | [6] -0.045 | lapatinib 0.027 | pictilisib -0.065

C1QBP (UniProt Q07021)
inactive: saracatinib 0.031 | sotrastaurin 0.092 | alvocidib -0.043 | Tubastatin A 0.079 | [1] 0.049 | defactinib -0.101 | rucaparib -0.022 | [2] 0.07 | encorafenib -0.006 | [3] -0.001 | [4] -0.015 | filanesib 0.005 | zotarolimus 0.013 | idasanutlin -0.038 | alisertib -0.055 | [5] 0.043 | gefitinib 0.013 | [6] 0.02 | lapatinib -0.014 | pictilisib 0.028

The list continues:

C9orf78 (UniProt Q9NZ63)
inactive: saracatinib 0.036 | sotrastaurin 0.03 | alvocidib 0.014 | Tubastatin A -0.011 | [1] -0.011 | defactinib 0.016 | rucaparib -0.059 | [2] -0.017 | encorafenib -0.019 | [3] 0.034 | [4] -0.005 | filanesib -0.022 | zotarolimus -0.023 | idasanutlin 0.006 | alisertib -0.008 | [5] -0.016 | gefitinib 0.003 | [6] 0.008 | lapatinib -0.02 | pictilisib -0.042

C17orf80 (UniProt Q9BSJ5)
inactive: saracatinib 0.118 | sotrastaurin 0.082 | alvocidib -0.034 | Tubastatin A -0.047 | [1] -0.027 | defactinib 0.006 | rucaparib -0.008 | [2] -0.242 | encorafenib 0.117 | [3] 0.026 | [4] -0.004 | filanesib 0.031 | zotarolimus 0.024 | idasanutlin -0.002 | alisertib 0.017 | [5] 0.013 | gefitinib 0.006 | [6] -0.031 | lapatinib -0.044 | pictilisib -0.001

BTF3 (UniProt P20290)
inactive: saracatinib 0.085 | sotrastaurin 0.045 | alvocidib -0.022 | Tubastatin A 0 | [1] -0.032 | defactinib 0.021 | rucaparib -0.012 | [2] -0.02 | encorafenib 0.008 | [3] 0.041 | [4] -0.005 | filanesib -0.003 | zotarolimus -0.026 | idasanutlin 0.008 | alisertib -0.022 | [5] -0.087 | gefitinib -0.016 | [6] -0.007 | lapatinib 0.029 | pictilisib -0.079

CAPN7 (UniProt Q9Y6W3)
inactive: saracatinib 0.001 | sotrastaurin -0.109 | alvocidib -0.073 | Tubastatin A 0.029 | [1] 0.005 | defactinib -0.064 | rucaparib -0.021 | [2] 0.011 | encorafenib 0.037 | [3] -0.004 | [4] 0.066 | filanesib -0.104 | zotarolimus 0.049 | idasanutlin 0.004 | alisertib 0.024 | [5] -0.025 | gefitinib 0.014 | [6] 0.015 | lapatinib 0.001 | pictilisib -0.026

BUB3 (UniProt O43684)
inactive: saracatinib 0.023 | sotrastaurin 0.035 | alvocidib -0.003 | Tubastatin A -0.018 | [1] -0.046 | defactinib -0.003 | rucaparib 0 | [2] -0.008 | encorafenib -0.03 | [3] 0.002 | [4] -0.014 | filanesib -0.028 | zotarolimus -0.038 | idasanutlin -0.024 | alisertib -0.039 | [5] 0.04 | gefitinib 0.001 | [6] 0.027 | lapatinib -0.028 | pictilisib 0.05

C11orf98 (UniProt E9PRG8)
inactive: saracatinib -0.018 | sotrastaurin 0.017 | alvocidib 0.314 | Tubastatin A 0.076 | [1] 0.052 | defactinib 0.315 | rucaparib 0.253 | [2] 0.072 | encorafenib 0.115 | [3] 0.051 | [4] -0.051 | filanesib 0.329 | zotarolimus 0.026 | idasanutlin 0.143 | alisertib -0.073 | [5] -0.012 | gefitinib -0.04 | [6] -0.127 | lapatinib 0.107 | pictilisib -0.081

C8orf76 (UniProt Q96K31)
inactive: saracatinib 0.053 | sotrastaurin 0.125 | alvocidib -0.028 | Tubastatin A -0.098 | [1] 0.023 | defactinib -0.131 | rucaparib 0.031 | [2] -0.123 | encorafenib -0.052 | [3] 0.022 | [4] 0.026 | filanesib 0.006 | zotarolimus -0.006 | idasanutlin 0.059 | alisertib -0.026 | [5] -0.009 | gefitinib -0.014 | [6] 0.079 | lapatinib 0.058 | pictilisib -0.022

C1orf122 (UniProt Q6ZSJ8)
inactive: saracatinib -0.153 | sotrastaurin -0.045 | alvocidib -0.191 | Tubastatin A 0.013 | [1] 0.054 | defactinib -0.05 | rucaparib 0.023 | [2] -0.092 | encorafenib -0.064 | [3] 0.042 | [4] 0.074 | filanesib -0.019 | zotarolimus 0.12 | idasanutlin -0.046 | alisertib -0.01 | [5] 0.072 | gefitinib 0.017 | [6] 0.027 | lapatinib -0.093 | pictilisib -0.156

CALM2 (UniProt P0DP24)
inactive: saracatinib 0.013 | sotrastaurin 0.041 | alvocidib 0.008 | Tubastatin A 0.001 | [1] -0.037 | defactinib 0.024 | rucaparib -0.058 | [2] -0.047 | encorafenib -0.02 | [3] 0.045 | [4] 0.088 | filanesib -0.062 | zotarolimus -0.027 | idasanutlin 0.01 | alisertib -0.085 | [5] -0.033 | gefitinib -0.013 | [6] 0.042 | lapatinib 0.082 | pictilisib -0.024

C3 (UniProt P01024)
inactive: saracatinib 0.281 | sotrastaurin 0.244 | alvocidib 0.105 | Tubastatin A -0.12 | [1] 0.091 | defactinib -0.084 | rucaparib -0.201 | [2] 0.022 | encorafenib -0.058 | [3] 0.126 | [4] -0.052 | filanesib 0.053 | zotarolimus -0.165 | idasanutlin 0.035 | alisertib -0.055 | [5] -0.171 | gefitinib -0.093 | [6] 0.323 | lapatinib -0.024 | pictilisib -0.09

C2CD2L (UniProt O14523)
inactive: saracatinib 0.027 | sotrastaurin 0.032 | alvocidib 0.006 | Tubastatin A -0.039 | [1] 0.083 | defactinib -0.018 | rucaparib 0.059 | [2] -0.049 | encorafenib -0.004 | [3] 0.014 | [4] -0.011 | filanesib -0.017 | zotarolimus -0.016 | idasanutlin 0.012 | alisertib -0.074 | [5] -0.05 | gefitinib 0.016 | [6] 0.055 | lapatinib 0.007 | pictilisib 0.088

CAPZA2 (UniProt P47755)
inactive: saracatinib 0.026 | sotrastaurin -0.007 | alvocidib -0.017 | Tubastatin A -0.012 | [1] 0.058 | defactinib -0.055 | rucaparib -0.021 | [2] -0.034 | encorafenib -0.021 | [3] -0.023 | [4] 0.053 | filanesib -0.048 | zotarolimus 0.027 | idasanutlin -0.06 | alisertib -0.052 | [5] -0.009 | gefitinib -0.029 | [6] 0.039 | lapatinib 0.04 | pictilisib 0.032
